Measured values: PMC10441460, “Identification of Selective ATP-Competitive CMG Helicase Inhibitors for Cancer Intervention that Disrupt CMG-Replisome Function” (Research Square, 2023)
No constants are given. Whether binding was seen depends on the method and setting. In cells and extracts the contact can be indirect. Some entries that bind do so weakly or less than the wild type. Each block holds one binder with its values, some of them ahead of it.

Sequences of proteins named here, by UniProt entry; tags and fusion partners are left off.
UniProt P49736: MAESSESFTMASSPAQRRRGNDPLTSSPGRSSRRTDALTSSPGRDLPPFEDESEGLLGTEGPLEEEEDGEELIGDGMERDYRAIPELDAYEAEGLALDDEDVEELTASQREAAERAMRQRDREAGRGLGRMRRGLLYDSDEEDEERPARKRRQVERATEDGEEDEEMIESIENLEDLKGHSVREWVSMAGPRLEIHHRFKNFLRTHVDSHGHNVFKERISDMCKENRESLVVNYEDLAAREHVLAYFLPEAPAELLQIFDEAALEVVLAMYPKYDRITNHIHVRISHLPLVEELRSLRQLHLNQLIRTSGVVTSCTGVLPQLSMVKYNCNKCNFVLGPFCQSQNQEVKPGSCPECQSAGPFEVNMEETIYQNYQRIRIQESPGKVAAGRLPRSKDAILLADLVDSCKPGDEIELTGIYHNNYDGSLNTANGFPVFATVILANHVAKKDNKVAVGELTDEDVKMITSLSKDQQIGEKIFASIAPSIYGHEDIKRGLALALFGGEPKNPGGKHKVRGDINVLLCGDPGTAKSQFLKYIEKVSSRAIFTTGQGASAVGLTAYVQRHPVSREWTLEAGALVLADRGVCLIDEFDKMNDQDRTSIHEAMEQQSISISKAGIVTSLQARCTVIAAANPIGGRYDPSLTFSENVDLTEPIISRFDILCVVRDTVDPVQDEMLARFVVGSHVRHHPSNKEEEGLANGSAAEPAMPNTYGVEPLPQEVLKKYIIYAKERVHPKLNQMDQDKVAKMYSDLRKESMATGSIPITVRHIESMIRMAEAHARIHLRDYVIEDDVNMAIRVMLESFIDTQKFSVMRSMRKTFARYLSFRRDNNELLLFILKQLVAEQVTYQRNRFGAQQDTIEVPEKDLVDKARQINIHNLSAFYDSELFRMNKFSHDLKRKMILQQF

Columns and labels:
[1] = target: T1, Psf1 (endogenous) (human (endogenous in HaCaT and HEK-293T)) (UniProt Q14691); assay: co-IP; as a2, but the beads with the immunoprecipitated complexes were incubated with 15 µM coumermycin-A1 (CA1) for 30 min, washed, immunoblotted
T1 sequence: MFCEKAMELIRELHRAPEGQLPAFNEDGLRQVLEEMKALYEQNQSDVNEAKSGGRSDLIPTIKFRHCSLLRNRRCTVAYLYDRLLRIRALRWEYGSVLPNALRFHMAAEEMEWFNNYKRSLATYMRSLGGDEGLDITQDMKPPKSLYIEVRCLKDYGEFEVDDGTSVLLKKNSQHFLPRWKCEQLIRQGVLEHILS

[2] = target: T1, Psf1 (endogenous) (human (endogenous in HaCaT and HEK-293T)); assay: co-IP; nuclear extract of synchronized HaCaT cells (20 hrs after release, S-phase), 200 mM potassium acetate, 0.01% Triton X-100, 4°C; IP with anti-Psf1 or anti-Mcm2 (IgG control), protein A/G agarose; beads incubated with DMSO for 30 min, washed, immunoblotted
[3] = target: Flag-Mcm2 (human, ectopic) (human) (UniProt P49736); assay: co-IP; nuclear extract of asynchronous HEK-293T cells stably expressing Flag-Mcm2, 200 mM potassium acetate, 0.01% Triton X-100, 4°C; IP with anti-Flag agarose (mouse IgG agarose control); beads incubated with DMSO for 30 min, washed, immunoblotted
[4] = target: Mcm2 (endogenous) (human (endogenous in HaCaT)) (UniProt P49736); assay: co-IP; nuclear extract of synchronized HaCaT cells (20 hrs after release, S-phase), 200 mM potassium acetate, 0.01% Triton X-100, 4°C; IP with anti-Psf1 or anti-Mcm2 (IgG control), protein A/G agarose; beads incubated with DMSO for 30 min, washed, immunoblotted
[5] = target: Flag-Mcm2 (human, ectopic) (human) (UniProt P49736); assay: condition: only with 15 µM CA1 on the immunoprecipitated complexes for 30 min; co-IP; as a4, but the beads with the immunoprecipitated complexes were incubated with 15 µM coumermycin-A1 (CA1) for 30 min, washed, immunoblotted
[6] = target: Mcm2 (endogenous) (human (endogenous in HaCaT)) (UniProt P49736); assay: condition: only with 15 µM CA1 on the immunoprecipitated complexes for 30 min; co-IP; as a2, but the beads with the immunoprecipitated complexes were incubated with 15 µM coumermycin-A1 (CA1) for 30 min, washed, immunoblotted
[7] = target: T1, Psf1 (endogenous) (human (endogenous in HaCaT and HEK-293T)); assay: as above
[8] = target: Flag-Mcm2 (human, ectopic) (human), P49736; assay: co-IP; nuclear extract of asynchronous HEK-293T cells stably expressing Flag-Mcm2, 200 mM potassium acetate, 0.01% Triton X-100, 4°C; IP with anti-Flag agarose (mouse IgG agarose control); beads incubated with DMSO for 30 min, washed, immunoblotted; settings: remark: other sources report otherwise

B3: Cdc45 (endogenous) (protein, UniProt O75419 1-566)
chain: MFVSDFRKEFYEVVQSQRVLLFVASDVDALCACKILQALFQCDHVQYTLVPVSGWQELETAFLEHKEQFHYFILINCGANVDLLDILQPDEDTIFFVCDTHRPVNVVNVYNDTQIKLLIKQDDDLEVPAYEDIFRDEEEDEEHSGNDSDGSEPSEKRTRLEEEIVEQTMRRRQRREWEARRRDILFDYEQYEYHGTSSAMVMFELAWMLSKDLNDMLWWAIVGLTDQWVQDKITQMKYVTDVGVLQRHVSRHNHRNEDEENTLSVDCTRISFEYDLRLVLYQHWSLHDSLCNTSYTAARFKLWSVHGQKRLQEFLADMGLPLKQVKQKFQAMDISLKENLREMIEESANKFGMKDMRVQTFSIHFGFKHKFLASDVVFATMSLMESPEKDGSGTDHFIQALDSLSRSNLDKLYHGLELAKKQLRATQQTIASCLCTNLVISQGPFLYCSLMEGTPDVMLFSRPASLSLLSKHLLKSFVCSTKNRRCKLLPLVMAAPLSMEHGTVTVVGIPPETDSSDRKNFFGRAFEKAAESTSSRMLHNHFDLSVIELKAEDRSKFLDALISLLS
binding [3]: binds
binding [4]: binds
binding [5]: no binding
binding [6]: no binding

B4: Mcm6 (endogenous) (protein, UniProt Q14566 1-821)
chain: MDLAAAAEPGAGSQHLEVRDEVAEKCQKLFLDFLEEFQSSDGEIKYLQLAEELIRPERNTLVVSFVDLEQFNQQLSTTIQEEFYRVYPYLCRALKTFVKDRKEIPLAKDFYVAFQDLPTRHKIRELTSSRIGLLTRISGQVVRTHPVHPELVSGTFLCLDCQTVIRDVEQQFKYTQPNICRNPVCANRRRFLLDTNKSRFVDFQKVRIQETQAELPRGSIPRSLEVILRAEAVESAQAGDKCDFTGTLIVVPDVSKLSTPGARAETNSRVSGVDGYETEGIRGLRALGVRDLSYRLVFLACCVAPTNPRFGGKELRDEEQTAESIKNQMTVKEWEKVFEMSQDKNLYHNLCTSLFPTIHGNDEVKRGVLLMLFGGVPKTTGEGTSLRGDINVCIVGDPSTAKSQFLKHVEEFSPRAVYTSGKASSAAGLTAAVVRDEESHEFVIEAGALMLADNGVCCIDEFDKMDVRDQVAIHEAMEQQTISITKAGVKATLNARTSILAAANPISGHYDRSKSLKQNINLSAPIMSRFDLFFILVDECNEVTDYAIARRIVDLHSRIEESIDRVYSLDDIRRYLLFARQFKPKISKESEDFIVEQYKHLRQRDGSGVTKSSWRITVRQLESMIRLSEAMARMHCCDEVQPKHVKEAFRLLNKSIIRVETPDVNLDQEEEIQMEVDEGAGGINGHADSPAPVNGINGYNEDINQESAPKASLRLGFSEYCRISNLIVLHLRKVEEEEDESALKRSELVNWYLKEIESEIDSEEELINKKRIIEKVIHRLTHYDHVLIELTQAGLKGSTEGSESYEEDPYLVVNPNYLLED
binding [2]: binds
binding [7]: no binding

B5: Ctf4 (endogenous), O75717 1-1129 (protein)
chain: MPATRKPMRYGHTEGHTEVCFDDSGSFIVTCGSDGDVRIWEDLDDDDPKFINVGEKAYSCALKSGKLVTAVSNNTIQVHTFPEGVPDGILTRFTTNANHVVFNGDGTKIAAGSSDFLVKIVDVMDSSQQKTFRGHDAPVLSLSFDPKDIFLASASCDGSVRVWQISDQTCAISWPLLQKCNDVINAKSICRLAWQPKSGKLLAIPVEKSVKLYRRESWSHQFDLSDNFISQTLNIVTWSPCGQYLAAGSINGLIIVWNVETKDCMERVKHEKGYAICGLAWHPTCGRISYTDAEGNLGLLENVCDPSGKTSSSKVSSRVEKDYNDLFDGDDMSNAGDFLNDNAVEIPSFSKGIINDDEDDEDLMMASGRPRQRSHILEDDENSVDISMLKTGSSLLKEEEEDGQEGSIHNLPLVTSQRPFYDGPMPTPRQKPFQSGSTPLHLTHRFMVWNSIGIIRCYNDEQDNAIDVEFHDTSIHHATHLSNTLNYTIADLSHEAILLACESTDELASKLHCLHFSSWDSSKEWIIDLPQNEDIEAICLGQGWAAAATSALLLRLFTIGGVQKEVFSLAGPVVSMAGHGEQLFIVYHRGTGFDGDQCLGVQLLELGKKKKQILHGDPLPLTRKSYLAWIGFSAEGTPCYVDSEGIVRMLNRGLGNTWTPICNTREHCKGKSDHYWVVGIHENPQQLRCIPCKGSRFPPTLPRPAVAILSFKLPYCQIATEKGQMEEQFWRSVIFHNHLDYLAKNGYEYEESTKNQATKEQQELLMKMLALSCKLEREFRCVELADLMTQNAVNLAIKYASRSRKLILAQKLSELAVEKAAELTATQVEEEEEEEDFRKKLNAGYSNTATEWSQPRFRNQVEEDAEDSGEADDEEKPEIHKPGQNSFSKSTNSSDVSAKSGAVTFSSQGRVNPFKVSASSKEPAMSMNSARSTNILDNMGKSSKKSTALSRTTNNEKSPIIKPLIPKPKPKQASAASYFQKRNSQTNKTEEVKEENLKNVLSETPAICPPQNTENQRPKTGFQMWLEENRSNILSDNPDFSDEADIIKEGMIRFRVLSTEERKVWANKAKGETASEGTEAKKRKRVVDESDETENQEEKAKENLNLSKKQKPLDFSTNQKLSAFAFKQE
binding [8]: binds

Continued, values first:

binding [1]: binds
binding [2]: binds
B1: Psf2 (endogenous) (protein, UniProt Q9Y248 1-185)
chain: MDAAEVEFLAEKELVTIIPNFSLDKIYLIGGDLGPFNPGLPVEVPLWLAINLKQRQKCRLLPPEWMDVEKLEKMRDHERKEETFTPMPSPYYMELTKLLLNHASDNIPKADEIRTLVKDMWDTRIAKLRVSADSFVRQQEAHAKLDNLTLMEINTSGTFLTQALNHMYKLRTNLQPLESTQSQDF

binding [1]: binds
binding [2]: binds
B2: Psf3 (endogenous) (protein, UniProt Q9BRX5 1-216)
chain: MSEAYFRVESGALGPEENFLSLDDILMSHEKLPVRTETAMPRLGAFFLERSAGAETDNAVPQGSKLELPLWLAKGLFDNKRRILSVELPKIYQEGWRTVFSADPNVVDLHKMGPHFYGFGSQLLHFDSPENADISQSLLQTFIGRFRRIMDSSQNAYNEDTSALVARLDEMERGLFQTGQKGLNDFQCWEKGQASQITASNLVQNYKKRKFTDMED

binding [3]: binds
binding [5]: no binding
B6: Psf1 (endogenous) (protein, UniProt Q14691 1-196)
chain: T1 sequence
